Patent US8809529B2, “Imidazo[1,2-α]pyrazine derivatives” (Promega Corporation, priority 2010, dated 2014)

B1: 9B8: IV variant with Q18L, F68Y, L72Q, M75K; in Tables 12, 22, 23, 26, 27 “9B8” stands for 9B8 opt (protein)
chain: MVFTLEDFVGDWRQTAGYNLDQVLEQGGLSSLFQKLGVSVTPIQKIVLSGENGLKIDIHVIIPYEGLSGYQMGQIEKIFKVVYPVDDHHFKVILHYGTLVIDGVTPNMIDYFGRPYEGIAVFDGKKITVTGTLWNGNKIIDERLINPDGSLLFRVTINGVTGWRLCERILA
B2: L27V: 9B8 opt+K33N variant with L27V, T39T, K43R, Y68D (protein)
chain: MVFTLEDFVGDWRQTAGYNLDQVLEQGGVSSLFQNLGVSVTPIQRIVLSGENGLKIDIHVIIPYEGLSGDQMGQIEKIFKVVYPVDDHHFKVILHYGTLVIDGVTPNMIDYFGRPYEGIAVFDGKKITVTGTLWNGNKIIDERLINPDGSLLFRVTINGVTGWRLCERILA

How the values were obtained:
[1] = Auto-luminescence characterization of coelenterazines; assay type: physicochemical; details: 20 μM on HEK293 cells in CO2 independent media plus 10% FBS; normalized to native coelenterazine
CHO cells = assay: Intracellular half-life of OgLuc variants in CHO cells (cycloheximide); assay type: cell-based; details: for intracellular half-life: CMV d2 no deg.: CMV deletion variant (d2); for intracellular half-life: CMV Pest: PEST degradation signal; for intracellular half-life: CMV no deg.: cycloheximide, full strength CMV promoter

Molecule | Autolum (norm to coel) [1] | also measured
O=c1c(Cc2ccco2)nc2c(Cc3ccccc3)[nH]c(-c3ccccc3)cn1-2 [PBI-3939, 8-benzyl-2-(furan-2-ylmethyl)-6-phenylimidazo[1,2-a]pyrazin-3(7H)-one] | 0.2 | 
O=c1c(Cc2ccccc2)nc2c(Cc3ccccc3)[nH]c(-c3ccccc3)cn1-2 [Coelenterazine hh, bis-deoxycoelenterazine, reference compound] | 0.3 | 
coelenterazine-h [Coelenterazine h, reference compound] | 1.2 | 
Cc1[nH]c(-c2ccccc2)cn2c(=O)c(Cc3ccc(O)cc3)nc1-2 [PBI-3896, 2-(4-hydroxybenzyl)-8-methyl-6-phenylimidazo[1,2-a]pyrazin-3(7H)-one] | 0.1 | 
O=c1c(Cc2cccs2)nc2c(Cc3ccccc3)[nH]c(-c3ccccc3)cn1-2 [PBI-3889, 8-benzyl-6-phenyl-2-(thiophen-2-ylmethyl)imidazo[1,2-a]pyrazin-3(7H)-one] | 0.2 | 
Oc1ccc(Cc2nc3c(Cc4ccccc4)nc(-c4ccc(O)cc4)cn3c2O)cc1 [Native coelenterazine, coelenterazine, reference compound] | 1 | 
Cc1nc2c(Cc3ccccc3)[nH]c(-c3ccccc3)cn-2c1=O [PBI-3932, 8-benzyl-2-methyl-6-phenylimidazo[1,2-a]pyrazin-3(7H)-one] | 0.1 | 
O=c1c(Cc2ccc(O)cc2)nc2c(C3CC3)[nH]c(-c3ccccc3)cn1-2 [PBI-3897, 8-cyclopropyl-2-(4-hydroxybenzyl)-6-phenylimidazo[1,2-a]pyrazin-3(7H)-one] | 0.1 | 
CCc1nc2c(Cc3ccccc3)[nH]c(-c3ccccc3)cn-2c1=O [PBI-3925, 8-benzyl-2-ethyl-6-phenylimidazo[1,2-a]pyrazin-3(7H)-one] | 0.2 | 
O=c1c(Cc2ccc(O)cc2)nc2c[nH]c(-c3ccccc3)cn1-2 [PBI-3894] | 0.2 | 
CC(C)c1[nH]c(-c2ccccc2)cn2c(=O)c(Cc3ccc(O)cc3)nc1-2 [PBI-3841] | 0.1 | 
O=c1c(Cc2ccco2)nc2c(Cc3ccccc3)[nH]c(-c3ccc(O)cc3)cn1-2 [PBI-3945] | 0.5 | 
O=c1c(Cc2ccc(O)cc2)nc2c(Cc3ccccc3)[nH]c(-c3ccccc3)cn1-2 [PBI-3840, 8-benzyl-2-(4-hydroxybenzyl)-6-phenylimidazo[1,2-a]pyrazin-3(7H)-one] | 0.2 | 
O=c1c(Cc2cccs2)nc2c(Cc3ccccc3)[nH]c(-c3ccc(O)cc3)cn1-2 [PBI-4002] | 0.6 | 
B1 |  | intracellular half-life: CMV d2 no deg. (CHO cells): 3.87 h; intracellular half-life: CMV Pest (CHO cells): 1.43 h; intracellular half-life: CMV no deg. (CHO cells): 6.32 h
B2 |  | intracellular half-life: CMV d2 no deg. (CHO cells): 4.78 h; intracellular half-life: CMV Pest (CHO cells): 1.63 h; intracellular half-life: CMV no deg. (CHO cells): 6.66 h
